Literature values as cited in US20260144771A1, “Use of Triheptanoin Oil for Primary-Specific Pyruvate Dehydrogenase Complex (PDC) Deficiency” (University of Pittsburgh - Of the Commonwealth System of …, priority 2022, published 2026).
At least one compound was matched to its structure with a doubt left.

Settings: two prior clinical trials

**Q.** Which overall clinical benefit does the source give for O=C(O)C(Cl)Cl [DCA, dichloroacetate] here?
**A.** did not show significant overall clinical benefit

**Q.** And the “cerebrospinal fluid and/or blood lactate” value (children and adults)?
**A.** reduction
